Experimental data as given in paper PMC4877375.
These are yes or no findings as the source states them, for the method shown. Binding seen in cells or lysates may run through a third protein. These calls come from enrichment with a bait or labelling near it, and not all partners need be listed. No binding means not detected with the bait. Values belong to the binder of their own block, whether it stands above or below them.

How the values were obtained:
[1] = molecular target: T1, Trs120p-TAP (yeast (endogenous in the yeast strain)), Q04183; test: affinity purification with mass spectrometry; Trs120p-TAP purified from yeast lysate (1% CHAPS, 100 mM NaCl) on IgG beads, TEV elution, calmodulin beads, EGTA elution; gel bands or total eluate analysed by MS/MS; conditions: remark: other sources report otherwise
T1 chain: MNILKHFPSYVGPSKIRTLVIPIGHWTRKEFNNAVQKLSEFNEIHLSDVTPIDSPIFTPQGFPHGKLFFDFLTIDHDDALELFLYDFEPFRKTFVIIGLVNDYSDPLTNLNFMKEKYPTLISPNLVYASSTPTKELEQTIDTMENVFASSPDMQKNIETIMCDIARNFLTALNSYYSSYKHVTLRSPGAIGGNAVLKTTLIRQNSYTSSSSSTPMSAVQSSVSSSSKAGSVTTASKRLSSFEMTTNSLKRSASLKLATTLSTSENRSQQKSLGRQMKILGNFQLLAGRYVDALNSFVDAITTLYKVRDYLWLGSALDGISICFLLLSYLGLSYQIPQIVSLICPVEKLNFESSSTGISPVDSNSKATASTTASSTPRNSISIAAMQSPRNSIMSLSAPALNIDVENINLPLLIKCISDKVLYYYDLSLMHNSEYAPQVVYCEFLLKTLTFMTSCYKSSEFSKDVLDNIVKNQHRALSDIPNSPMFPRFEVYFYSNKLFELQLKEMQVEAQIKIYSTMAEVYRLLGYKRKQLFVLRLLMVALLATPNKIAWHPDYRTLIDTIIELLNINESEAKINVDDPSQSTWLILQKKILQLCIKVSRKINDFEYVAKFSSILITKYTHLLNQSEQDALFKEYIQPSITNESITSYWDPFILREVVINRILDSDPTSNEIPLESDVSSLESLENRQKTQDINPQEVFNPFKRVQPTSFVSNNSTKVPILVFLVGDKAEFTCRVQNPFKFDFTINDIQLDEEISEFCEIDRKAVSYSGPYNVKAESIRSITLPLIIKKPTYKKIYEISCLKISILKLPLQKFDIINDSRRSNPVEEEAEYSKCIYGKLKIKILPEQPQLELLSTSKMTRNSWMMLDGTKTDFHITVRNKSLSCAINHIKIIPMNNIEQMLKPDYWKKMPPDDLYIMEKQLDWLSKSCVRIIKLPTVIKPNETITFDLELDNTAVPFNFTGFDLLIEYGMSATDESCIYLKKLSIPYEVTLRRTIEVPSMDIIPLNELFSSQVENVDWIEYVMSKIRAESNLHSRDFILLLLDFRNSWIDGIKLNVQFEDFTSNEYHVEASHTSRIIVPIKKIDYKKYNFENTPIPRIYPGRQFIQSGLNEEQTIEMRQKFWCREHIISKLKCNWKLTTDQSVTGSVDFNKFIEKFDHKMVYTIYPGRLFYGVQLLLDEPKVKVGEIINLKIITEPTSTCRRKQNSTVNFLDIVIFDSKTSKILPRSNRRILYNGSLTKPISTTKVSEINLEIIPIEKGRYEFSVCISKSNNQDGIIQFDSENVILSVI

[2] = molecular target: T2, Trs120p-TAP (yeast (endogenous in the yeast strain)) (UniProt Q04183); test: as above
T2 sequence: T1 chain

- binding [1]: binds
B1: Tca17p, P32613 1-152 (protein)
chain: MSLRPCFVSLIDESDKPILIYVPNEAENEMNDVLKYNVLSNISLDYFESALVEWHSLDSKPLLKSIFQLEGVSVFAMLIKQTGLKIVIGFEQKSLSGADDEFEAINQIFETVRKIYIRVKCNPLLVSGDEKSIIKSLERKFDELFISTEVEL

- binding [2]: no binding
B4: Trs85p (protein, UniProt P46944 1-698)
chain: MVFSYEHYMNLLFHLDNSKETVPPEIAKRIISNAIAPVITVTSTPLFDKHIQETYKVDSLYMLLRFFGGCVSDRDQANEAKVGQHEHEVCDASDSTDSIPKNKNLEVPNLSKKGSRSRSNSLFQRDSTQSQYIRFTRPLGDLIETRDANDMLFNYHSLEVFLDNYLKLVAANTDEMVPHNLLKKSIYHSFFSLAISSTNNLSPYETFNHPILSLIALDISNGEVYEDARDLLVNFKNLNHNTENFPIFMNTNEMLPVFLLCYNDDSQEEFEKCQALAKKLKKQLFVESILLALWKDSFIYDENSVIQLHQPVMSSLEEILFFLQAPTQTTLSLALINSIYDMLDYLVYDLMIPFMKRKVSFWEETILQPRKSLFNGAKFFKKFMNKNPVNGNHQHNSLTRDSQGNEYFASSSSEFLMRKLADWSMMLSDFKTAYSTYESLMDDLDAFPKYLASCIEWCAVSLLMGAQSIVTVKMIKNDINPLIERALATYENCSRIQRGKGKESNSLDVTEPVRSYETRCMILASELFLSLSNTWTSTPYAIQYLETILDECKLGPCSQIMVWERLSDCYNLRVDPRIKHRVGAMKKDAKDTEDLRGEHKYSTDHFTDEDILSEGLTRRRKAAFFRLIAAKKWAEQKQWRQVSWCLKDIESTYSEIKFLHGNGLILSKLKNQLNLKDVDSAPRPSEKNLTRTSVSFIG

Second part, the binder before the results:

B2: Ypt31p (protein, UniProt P38555 1-223)
chain: MSSEDYGYDYDLLFKIVLIGDSGVGKSNLLSRFTKNEFNMDSKSTIGVEFATRTLEIDGKRIKAQIWDTAGQERYRAITSAYYRGAVGALIVYDISKSSSYENCNHWLSELRENADDNVAVGLIGNKSDLAHLRAVPTEESKTFAQENQLLFTETSALNSENVDKAFEELINTIYQKVSKHQMDLGDSSANGNANGASAPNGPTISLTPTPNENKKANGNNCC
- binding [2]: no binding

B3: Ypt32p, P51996 1-222 (protein)
chain: MSNEDYGYDYDYLFKIVLIGDSGVGKSNLLSRFTTDEFNIESKSTIGVEFATRTIEVENKKIKAQIWDTAGQERYRAITSAYYRGAVGALIVYDISKSSSYENCNHWLTELRENADDNVAVGLIGNKSDLAHLRAVPTDEAKNFAMENQMLFTETSALNSDNVDKAFRELIVAIFQMVSKHQVDLSGSGTNNMGSNGAPKGPTISLTPAPKEDKKKKSSNCC
- binding [1]: no binding
